Laboratory results from patent US8013159B2, “Quinoline derivatives as EP4 antagonists” (Merck Canada Inc., priority 2005, dated 2011).
Some entries share one result that the patent states for a list of compounds.

The chains behind the UniProt entries cited, without tags or fusion partners. Where a name states a change or a piece, a line headed by the entry shows the natural chain unless it says otherwise.
UniProt P35408: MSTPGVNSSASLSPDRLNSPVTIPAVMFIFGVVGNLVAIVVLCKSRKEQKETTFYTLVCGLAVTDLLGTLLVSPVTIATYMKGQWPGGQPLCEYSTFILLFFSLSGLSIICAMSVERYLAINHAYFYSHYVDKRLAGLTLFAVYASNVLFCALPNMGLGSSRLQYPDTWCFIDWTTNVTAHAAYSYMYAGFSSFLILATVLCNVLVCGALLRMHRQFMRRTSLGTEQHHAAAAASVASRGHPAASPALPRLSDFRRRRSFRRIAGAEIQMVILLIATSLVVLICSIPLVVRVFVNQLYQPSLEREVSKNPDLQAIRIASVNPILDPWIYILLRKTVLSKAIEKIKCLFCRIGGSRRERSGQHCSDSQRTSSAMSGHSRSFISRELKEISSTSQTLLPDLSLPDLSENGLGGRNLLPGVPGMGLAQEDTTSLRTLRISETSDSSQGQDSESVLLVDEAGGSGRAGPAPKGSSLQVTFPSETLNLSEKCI

Molecular target: T1, EP4 receptor (Homo sapiens, UniProt P35408)
T1 construct: expressed in transfected cells; membranes prepared by differential centrifugation
Test: Prostanoid receptor binding assay (EP4), membranes of transfected HEK 293(ebna) cells
Method: Prostanoid receptor cDNAs corresponding to full length coding sequences are subcloned into the appropriate sites of mammalian expression vectors and transfected into HEK 293(ebna) cells. HEK 293(ebna) cells expressing the individual cDNAs are grown under selection and individual colonies are isolated after 2-3 weeks of growth using the cloning ring method and subsequently expanded into clonal cell lines.
Transfected HEK 293(ebna) cells are maintained in culture, harvested and membranes are prepared by differential centrifugation, following lysis of the cells in the presence of protease inhibitors, for use in receptor binding assays. Prostanoid receptor binding assays (for DP1, DP2 (CRTH2), EP 1, EP2, EP3-11, EP4, FP, IP, and TP) are performed in 10 mM MES/KOH (pH 6.0) (EPs, FP and TP) or 10 mM HEPES/KOH (pH 7.4) (DPs and IP), containing 1 mM EDTA, 2.5-30 mM divalent cation and the appropriate radioligand. Synthetic compounds are added in dimethylsulfoxide which is kept constant at 1% (v/v) in all incubations. The reaction is initiated by addition of membrane protein. Non-specific binding is determined in the presence of 10 μM of the corresponding non-radioactive prostanoid. Incubations are conducted for 60-90 min at room temperature or 30° C. and terminated by rapid filtration. Specific binding is calculated by subtracting non specific binding from total binding. The residual specific binding at each ligand concentration is calculated and expressed as a function of ligand concentration in order to construct sigmoidal concentration-response curves. The binding affinity of the compounds is determined by calculating the equilibrium inhibition constant (Ki) from the equation Ki=InPt/1+[radioligand]/Kd where Kd is the equilibrium dissociation constant for the radioligand:receptor interaction and InPt is the inflection point of the dose-response curves.

SMILES	IC50 [nM]
Cc1cc(CS(=O)(=O)NC(=O)C2(c3c(C)cccc3C)CC2)ccc1N1Cc2c(c(OCC(F)(F)F)c3cccnc3c2OCC(F)(F)F)C1=O [Example 74, 1-(2,6-dimethylphenyl)-N-({3-methyl-4-[6-oxo-5,9-bis(2,2,2-trifluoroethoxy)-6,8-dihydro-7H-pyrrolo[3,4-g]quinolin-7-yl]benzyl}sulfonyl)cyclopropane-carboxamide]	< 100
COc1ccc(Br)cc1CC(=O)NS(=O)(=O)Cc1ccc(N2Cc3c(c(OCC(F)(F)F)c4cccnc4c3OCC(F)(F)F)C2=O)c(C)c1 [Example 72, 2-(5-bromo-2-methoxyphenyl)-N-({3-methyl-4-[6-oxo-5,9-bis(2,2,2-trifluoroethoxy)-6,8-dihydro-7H-pyrrolo[3,4-g]quinolin-7-yl]benzyl}sulfonyl)acetamide]	< 100
COc1ccc(Br)c(OC)c1C1(C(=O)NS(=O)(=O)Cc2ccc(N3Cc4c(c(OCC(F)(F)F)c5cccnc5c4OCC(F)(F)F)C3=O)c(C)c2)CC1 [Example 66, 1-(3-bromo-2,6-dimethoxyphenyl)-N-({3-methyl-4-[6-oxo-5,9-bis(2,2,2-trifluoroethoxy)-6,8-dihydro-7H-pyrrolo[3,4-g]quinolin-7-yl]benzyl}sulfonyl)cyclopropane-carboxamide]	< 100
CCOc1c2c(c(OCC)c3ncccc13)CN(c1ccc(CS(=O)(=O)NC(=O)Cc3ccccc3OC)cc1C)C2=O [Example 1, N-{[4-(5,9-diethoxy-6-oxo-6,8-dihydro-7H-pyrrolo[3,4-g]quinolin-7-yl)-3-methylbenzyl]sulfonyl}-2-(2-methoxyphenyl)acetamide]	< 100
CCOc1c2c(c(OCC)c3ncccc13)CN(c1ccc(CS(=O)(=O)NC(=O)Cc3ccccc3OC(F)(F)F)cc1C)C2=O [Example 16, N-{[4-(5,9-diethoxy-6-oxo-6,8-dihydro-7H-pyrrolo[3,4-g]quinolin-7-yl)-3-methylbenzyl]sulfonyl}-2-[2-(trifluoromethoxy)phenyl]acetamide]	< 100
COc1ccccc1C1(C(=O)NS(=O)(=O)Cc2ccc(N3Cc4c(c(OCC(F)(F)F)c5cccnc5c4OCC(F)(F)F)C3=O)c(Cl)c2)CC1 [Example 64, N-({3-chloro-4-[6-oxo-5,9-bis(2,2,2-trifluoroethoxy)-6,8-dihydro-7H-pyrrolo[3,4-g]quinolin-7-yl]benzyl}sulfonyl)-1-(2-methoxyphenyl)cyclopropanecarbox-amide]	< 100
CCOc1c2c(c(OCC)c3ncccc13)CN(c1ccc(CS(=O)(=O)NC(=O)Cc3c(OC)cccc3OC)cc1C)C2=O [Example 51, N-{[4-(5,9-diethoxy-6-oxo-6,8-dihydro-7H-pyrrolo[3,4-g]quinolin-7-yl)-3-methylbenzyl]sulfonyl}-2-(2,6-dimethoxyphenyl)acetamide]	< 100
COc1cccc(OC)c1C(=O)C(=O)NS(=O)(=O)Cc1ccc(N2Cc3c(c(OCC(F)(F)F)c4cccnc4c3OCC(F)(F)F)C2=O)c(C)c1 [Example 76, 2-(2,6-dimethoxyphenyl)-N-({3-methyl-4-[6-oxo-5,9-bis(2,2,2-trifluoroethoxy)-6,8-dihydro-7H-pyrrolo[3,4-g]quinolin-7-yl]benzyl}sulfonyl)-2-oxoacetamide]	< 100
CCOc1c2c(c(OCC)c3ncccc13)CN(c1ccc(CS(=O)(=O)NC(=O)C(C)c3ccccc3OC)cc1C)C2=O (stereo not shown) [Example 34, N-{[4-(5,9-diethoxy-6-oxo-6,8-dihydro-7H-pyrrolo[3,4-g]quinolin-7-yl)-3-methylbenzyl]sulfonyl}-2-(2-methoxyphenyl)propanamide]	< 100
COc1cccc(CC(=O)NS(=O)(=O)Cc2ccc(N3Cc4c(c(OCC(F)(F)F)c5cccnc5c4OCC(F)(F)F)C3=O)c(C)c2)c1OC [Example 75, 2-(2,3-dimethoxyphenyl)-N-({3-methyl-4-[6-oxo-5,9-bis(2,2,2-trifluoroethoxy)-6,8-dihydro-7H-pyrrolo[3,4-g]quinolin-7-yl]benzyl}sulfonyl)acetamide]	< 100
CCOc1c2c(c(OCC)c3ncccc13)CN(c1ccc(CS(=O)(=O)NC(=O)C3(c4c(Cl)cccc4Cl)CC3)cc1C)C2=O [Example 58, 1-(2,6-dichlorophenyl)-N-{[4-(5,9-diethoxy-6-oxo-6,8-dihydro-7H-pyrrolo[3,4-g]quinolin-7-yl)-3-methylbenzyl]sulfonyl}cyclopropane-carboxamide]	< 100
CCc1cccc(CC)c1C1(C(=O)NS(=O)(=O)Cc2ccc(N3Cc4c(c(OCC(F)(F)F)c5cccnc5c4OCC(F)(F)F)C3=O)c(C)c2)CC1 [Example 68, 1-(2,6-diethylphenyl)-N-({3-methyl-4-[6-oxo-5,9-bis(2,2,2-trifluoroethoxy)-6,8-dihydro-7H-pyrrolo[3,4-g]quinolin-7-yl]benzyl}sulfonyl)cyclopropane-carboxamide]	< 100
CCOc1c2c(c(OCC)c3ncccc13)CN(c1ccc(CS(=O)(=O)NC(=O)C3(c4c(OC)cccc4OC)CC3)cc1C)C2=O [Example 59, N-{[4-(5,9-diethoxy-6-oxo-6,8-dihydro-7H-pyrrolo[3,4-g]quinolin-7-yl)-3-methylbenzyl]sulfonyl}-1-(2,6-dimethoxyphenyl)cyclopropane-carboxamide]	< 100
CCOc1c2c(c(OCC)c3ncccc13)C(=O)N(c1ccc(CS(=O)(=O)NC(=O)Cc3ccccc3)cc1C)C2 [Example 21, N-{[4-(5,9-diethoxy-8-oxo-6,8-dihydro-7H-pyrrolo[3,4-g]quinolin-7-yl)-3-methylbenzyl]sulfonyl}-2-phenylacetamide]	< 100
COc1cccc(OC)c1C1(C(=O)NS(=O)(=O)Cc2ccc(N3Cc4c(c(OCC(F)(F)F)c5cccnc5c4OCC(F)(F)F)C3=O)c(Cl)c2)CC1 [Example 63, N-({3-chloro-4-[6-oxo-5,9-bis(2,2,2-trifluoroethoxy)-6,8-dihydro-7H-pyrrolo[3,4-g]quinolin-7-yl]benzyl}sulfonyl)-1-(2,6-dimethoxyphenyl)cyclopropane-carboxamide]	< 100
CCOc1c2c(c(OCC)c3ncccc13)CN(c1ccc(CS(=O)(=O)NC(=O)C(F)(F)c3ccccc3)cc1C)C2=O [Example 48, N-{[4-(5,9-diethoxy-6-oxo-6,8-dihydro-7H-pyrrolo[3,4-g]quinolin-7-yl)-3-methylbenzyl]sulfonyl}-2,2-difluoro-2-phenylacetamide]	< 100
CCOc1c2c(c(OCC)c3ncccc13)CN(c1ccc(CS(=O)(=O)NC(=O)[C@H](OC)c3ccccc3)cc1C)C2=O [Example 40, (2R)-N-{[4-(5,9-diethoxy-6-oxo-6,8-dihydro-7H-pyrrolo[3,4-g]quinolin-7-yl)-3-methylbenzyl]sulfonyl}-2-methoxy-2-phenylacetamide]	< 100
CCOc1c2c(c(OCC)c3ncccc13)CN(c1ccc(CS(=O)(=O)NC(=O)Cc3cccnc3)cc1C)C2=O [Example 10, N-{[4-(5,9-diethoxy-6-oxo-6,8-dihydro-7H-pyrrolo[3,4-g]quinolin-7-yl)-3-methylbenzyl]sulfonyl}-2-pyridin-3-ylacetamide]	< 100
Cc1ccccc1CC(=O)NS(=O)(=O)Cc1ccc(N2Cc3c(c(OCC(F)(F)F)c4cccnc4c3OCC(F)(F)F)C2=O)c(C)c1 [Example 71, N-({3-methyl-4-[6-oxo-5,9-bis(2,2,2-trifluoroethoxy)-6,8-dihydro-7H-pyrrolo[3,4-g]quinolin-7-yl]benzyl}sulfonyl)-2-(2-methylphenyl)acetamide]	< 100
